Experimental data from article PMC11099055.
No constants are given. Whether binding was seen depends on the method and setting. In cells and extracts the contact can be indirect. Some entries that bind do so weakly or less than the wild type.

Sequences of proteins named here, by UniProt entry; tags and fusion partners are left off.
UniProt O95071: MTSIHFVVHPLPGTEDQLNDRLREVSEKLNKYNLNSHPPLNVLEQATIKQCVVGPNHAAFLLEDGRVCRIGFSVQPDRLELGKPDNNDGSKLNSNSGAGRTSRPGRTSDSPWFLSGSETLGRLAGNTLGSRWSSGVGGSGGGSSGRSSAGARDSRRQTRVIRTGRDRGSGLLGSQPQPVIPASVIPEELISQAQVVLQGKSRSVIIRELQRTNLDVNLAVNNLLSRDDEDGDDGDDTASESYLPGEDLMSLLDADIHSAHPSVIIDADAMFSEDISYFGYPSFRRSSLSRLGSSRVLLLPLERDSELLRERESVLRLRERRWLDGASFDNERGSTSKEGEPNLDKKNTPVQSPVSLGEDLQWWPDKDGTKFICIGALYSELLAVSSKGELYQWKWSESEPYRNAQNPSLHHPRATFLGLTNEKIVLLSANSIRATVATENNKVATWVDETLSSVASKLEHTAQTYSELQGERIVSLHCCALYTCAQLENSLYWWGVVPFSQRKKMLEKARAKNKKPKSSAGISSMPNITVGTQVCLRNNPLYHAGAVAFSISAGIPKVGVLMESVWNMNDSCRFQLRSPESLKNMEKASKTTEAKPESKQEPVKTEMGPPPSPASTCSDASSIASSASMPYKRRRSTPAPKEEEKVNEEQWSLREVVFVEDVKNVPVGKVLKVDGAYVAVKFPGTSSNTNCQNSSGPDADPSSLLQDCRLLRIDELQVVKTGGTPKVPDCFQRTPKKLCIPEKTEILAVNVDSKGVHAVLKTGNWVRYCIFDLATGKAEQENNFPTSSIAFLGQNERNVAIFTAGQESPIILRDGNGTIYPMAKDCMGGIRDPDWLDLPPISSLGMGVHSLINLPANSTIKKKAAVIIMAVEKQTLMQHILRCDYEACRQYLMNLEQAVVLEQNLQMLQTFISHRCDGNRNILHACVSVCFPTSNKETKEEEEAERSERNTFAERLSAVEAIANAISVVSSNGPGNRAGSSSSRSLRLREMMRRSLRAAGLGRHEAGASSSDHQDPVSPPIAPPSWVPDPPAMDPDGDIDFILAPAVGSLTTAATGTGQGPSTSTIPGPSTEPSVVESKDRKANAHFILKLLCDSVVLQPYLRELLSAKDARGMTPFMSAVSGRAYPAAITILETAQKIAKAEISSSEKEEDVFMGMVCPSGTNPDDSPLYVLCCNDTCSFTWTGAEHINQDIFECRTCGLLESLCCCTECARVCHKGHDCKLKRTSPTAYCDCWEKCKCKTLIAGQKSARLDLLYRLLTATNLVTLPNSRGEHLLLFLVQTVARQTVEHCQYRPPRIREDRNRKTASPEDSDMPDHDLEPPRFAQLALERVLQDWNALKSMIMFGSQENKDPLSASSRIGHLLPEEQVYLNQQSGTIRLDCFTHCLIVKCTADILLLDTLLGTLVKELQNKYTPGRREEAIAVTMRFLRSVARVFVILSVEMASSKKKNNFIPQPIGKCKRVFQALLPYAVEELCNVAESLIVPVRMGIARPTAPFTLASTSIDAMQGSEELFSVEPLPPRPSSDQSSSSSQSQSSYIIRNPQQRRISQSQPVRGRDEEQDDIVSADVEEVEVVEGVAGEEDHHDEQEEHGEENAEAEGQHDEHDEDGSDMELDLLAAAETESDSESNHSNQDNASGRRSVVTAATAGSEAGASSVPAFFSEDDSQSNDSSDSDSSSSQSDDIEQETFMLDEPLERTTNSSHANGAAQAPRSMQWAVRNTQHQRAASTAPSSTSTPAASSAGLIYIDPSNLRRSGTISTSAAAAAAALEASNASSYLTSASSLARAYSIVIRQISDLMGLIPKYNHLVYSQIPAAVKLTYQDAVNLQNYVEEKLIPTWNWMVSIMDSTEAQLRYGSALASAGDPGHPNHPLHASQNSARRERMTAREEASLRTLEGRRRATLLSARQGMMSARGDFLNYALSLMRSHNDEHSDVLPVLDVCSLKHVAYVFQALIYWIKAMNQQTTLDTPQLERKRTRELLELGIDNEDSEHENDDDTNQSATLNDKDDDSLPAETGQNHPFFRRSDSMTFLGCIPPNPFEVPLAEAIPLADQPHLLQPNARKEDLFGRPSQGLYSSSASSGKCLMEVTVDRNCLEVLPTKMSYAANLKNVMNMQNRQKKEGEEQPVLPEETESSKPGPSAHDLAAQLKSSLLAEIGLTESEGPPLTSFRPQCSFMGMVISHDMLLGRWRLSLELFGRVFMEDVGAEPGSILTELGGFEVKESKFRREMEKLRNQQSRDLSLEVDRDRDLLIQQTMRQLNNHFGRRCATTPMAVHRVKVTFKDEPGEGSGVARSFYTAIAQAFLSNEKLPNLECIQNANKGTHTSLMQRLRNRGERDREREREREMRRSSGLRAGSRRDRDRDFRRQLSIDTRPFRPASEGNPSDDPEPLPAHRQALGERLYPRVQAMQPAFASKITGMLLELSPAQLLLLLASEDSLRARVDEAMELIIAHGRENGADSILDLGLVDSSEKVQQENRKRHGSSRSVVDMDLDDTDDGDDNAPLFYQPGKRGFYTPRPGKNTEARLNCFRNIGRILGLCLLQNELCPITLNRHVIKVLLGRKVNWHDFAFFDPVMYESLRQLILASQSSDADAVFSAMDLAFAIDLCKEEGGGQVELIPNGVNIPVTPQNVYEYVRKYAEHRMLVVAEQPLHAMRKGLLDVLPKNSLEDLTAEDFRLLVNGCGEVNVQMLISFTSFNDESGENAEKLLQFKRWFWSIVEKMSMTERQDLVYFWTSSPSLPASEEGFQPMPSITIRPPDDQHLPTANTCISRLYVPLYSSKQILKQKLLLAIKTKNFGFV

Target: ubiquitin-protein ligase E3 module N-recognition 5 (UBR5) (human (endogenous in AsPC-1-G/R and PANC-1-G/R)) (UniProt O95071)
Assay: co-IP; lysates of AsPC-1-G/R and PANC-1-G/R cells; magnetic beads and primary reagent added to the supernatant, shaken overnight at low temperature; washed three times; western blot

binding: binds
B1: O-GlcNAase (OGA) (enzyme, UniProt O60502 1-916)
chain: MVQKESQATLEERESELSSNPAASAGASLEPPAAPAPGEDNPAGAGGAAVAGAAGGARRFLCGVVEGFYGRPWVMEQRKELFRRLQKWELNTYLYAPKDDYKHRMFWREMYSVEEAEQLMTLISAAREYEIEFIYAISPGLDITFSNPKEVSTLKRKLDQVSQFGCRSFALLFDDIDHNMCAADKEVFSSFAHAQVSITNEIYQYLGEPETFLFCPTEYCGTFCYPNVSQSPYLRTVGEKLLPGIEVLWTGPKVVSKEIPVESIEEVSKIIKRAPVIWDNIHANDYDQKRLFLGPYKGRSTELIPRLKGVLTNPNCEFEANYVAIHTLATWYKSNMNGVRKDVVMTDSEDSTVSIQIKLENEGSDEDIETDVLYSPQMALKLALTEWLQEFGVPHQYSSRQVAHSGAKASVVDGTPLVAAPSLNATTVVTTVYQEPIMSQGAALSGEPTTLTKEEEKKQPDEEPMDMVVEKQEETDHKNDNQILSEIVEAKMAEELKPMDTDKESIAESKSPEMSMQEDCISDIAPMQTDEQTNKEQFVPGPNEKPLYTAEPVTLEDLQLLADLFYLPYEHGPKGAQMLREFQWLRANSSVVSVNCKGKDSEKIEEWRSRAAKFEEMCGLVMGMFTRLSNCANRTILYDMYSYVWDIKSIMSMVKSFVQWLGCRSHSSAQFLIGDQEPWAFRGGLAGEFQRLLPIDGANDLFFQPPPLTPTSKVYTIRPYFPKDEASVYKICREMYDDGVGLPFQSQPDLIGDKLVGGLLSLSLDYCFVLEDEDGICGYALGTVDVTPFIKKCKISWIPFMQEKYTKPNGDKELSEAEKIMLSFHEEQEVLPETFLANFPSLIKMDIHKKVTDPSVAKSMMACLLSSLKANGSRGAFCEVRPDDKRILEFYSKLGCFEIAKMEGFPKDVVILGRSL
